These are yes or no findings as the source states them, for the method shown. Some binding calls cover weakened binding; strength is not graded here. Sequences can lack the tags named with a protein.
How the values were obtained:
Factor H [1] = biological target: Factor H (UniProt P08603); test: ELISA; Factor H coated (10 µg/ml); NP1 and NP2 2.5-20 µg/ml in the fluid phase; detected with an anti-His-tag antibody; RT; both purified
Factor H [2] = biological target: Factor H (UniProt P08603); test: ELISA; FH coated (10 µg/ml); NP1 and NP2 2.5–20 µg/ml, PTX3 1.2–10 µg/ml in solution; bound pentraxins detected with anti-His-tag antibody; both purified
[3] = biological target: C1q isolated from mouse serum (mouse) (UniProt P98086+P14106+Q02105); test: ELISA; C1q coated to the plate; NP1, NP2 and PTX3 applied in the fluid phase (opposite arrangement to Figure 1a); representative measurements; both purified

Chains of the proteins cited; added tags and fusions are not shown. Lines headed by an entry give the natural chain unless they say otherwise; changes in a name come on top. Residues count along the entry.
UniProt P08603, residues 19-1231: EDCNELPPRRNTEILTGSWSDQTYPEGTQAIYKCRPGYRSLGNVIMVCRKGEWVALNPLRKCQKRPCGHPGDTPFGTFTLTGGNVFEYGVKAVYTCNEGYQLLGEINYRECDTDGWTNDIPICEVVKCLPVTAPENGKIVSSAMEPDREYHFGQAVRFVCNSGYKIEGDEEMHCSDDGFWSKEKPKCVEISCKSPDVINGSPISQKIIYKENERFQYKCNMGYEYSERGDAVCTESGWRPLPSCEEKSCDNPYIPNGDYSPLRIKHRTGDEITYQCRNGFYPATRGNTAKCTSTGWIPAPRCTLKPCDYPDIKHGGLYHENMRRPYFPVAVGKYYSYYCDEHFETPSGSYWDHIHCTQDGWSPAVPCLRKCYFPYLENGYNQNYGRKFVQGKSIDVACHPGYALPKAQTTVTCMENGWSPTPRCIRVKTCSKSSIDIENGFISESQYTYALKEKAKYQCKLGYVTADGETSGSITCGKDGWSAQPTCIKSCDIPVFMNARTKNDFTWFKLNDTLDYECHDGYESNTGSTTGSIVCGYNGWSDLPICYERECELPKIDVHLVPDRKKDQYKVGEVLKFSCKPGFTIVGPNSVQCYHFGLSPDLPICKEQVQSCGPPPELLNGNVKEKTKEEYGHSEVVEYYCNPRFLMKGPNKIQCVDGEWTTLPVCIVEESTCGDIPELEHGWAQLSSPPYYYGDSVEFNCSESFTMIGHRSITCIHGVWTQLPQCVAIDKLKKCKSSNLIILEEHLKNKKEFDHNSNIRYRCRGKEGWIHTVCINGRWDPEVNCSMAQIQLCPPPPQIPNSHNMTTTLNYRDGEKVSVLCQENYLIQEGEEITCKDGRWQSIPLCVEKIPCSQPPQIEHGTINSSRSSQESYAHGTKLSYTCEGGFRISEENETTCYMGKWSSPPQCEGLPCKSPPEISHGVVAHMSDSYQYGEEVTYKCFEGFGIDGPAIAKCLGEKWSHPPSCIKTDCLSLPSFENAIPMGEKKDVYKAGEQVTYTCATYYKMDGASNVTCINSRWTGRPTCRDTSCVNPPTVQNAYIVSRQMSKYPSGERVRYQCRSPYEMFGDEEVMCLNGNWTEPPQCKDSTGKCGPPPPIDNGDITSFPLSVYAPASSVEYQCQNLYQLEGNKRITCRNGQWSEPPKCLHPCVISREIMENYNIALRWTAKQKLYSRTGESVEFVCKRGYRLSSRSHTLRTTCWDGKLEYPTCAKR
UniProt P98086: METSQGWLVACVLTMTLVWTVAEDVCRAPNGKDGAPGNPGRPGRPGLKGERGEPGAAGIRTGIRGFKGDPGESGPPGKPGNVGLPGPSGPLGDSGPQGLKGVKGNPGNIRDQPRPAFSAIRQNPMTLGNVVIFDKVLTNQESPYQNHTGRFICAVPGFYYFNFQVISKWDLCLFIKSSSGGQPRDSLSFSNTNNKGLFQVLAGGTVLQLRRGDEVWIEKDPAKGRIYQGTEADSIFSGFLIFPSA
UniProt P14106: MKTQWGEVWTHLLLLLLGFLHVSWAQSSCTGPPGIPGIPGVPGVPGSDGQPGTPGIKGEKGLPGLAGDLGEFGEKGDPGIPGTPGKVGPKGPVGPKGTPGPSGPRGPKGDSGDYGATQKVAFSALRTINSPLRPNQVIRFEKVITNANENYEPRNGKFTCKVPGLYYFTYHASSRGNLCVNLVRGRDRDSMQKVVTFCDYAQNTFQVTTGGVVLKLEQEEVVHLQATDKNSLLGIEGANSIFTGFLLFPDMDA
UniProt Q02105: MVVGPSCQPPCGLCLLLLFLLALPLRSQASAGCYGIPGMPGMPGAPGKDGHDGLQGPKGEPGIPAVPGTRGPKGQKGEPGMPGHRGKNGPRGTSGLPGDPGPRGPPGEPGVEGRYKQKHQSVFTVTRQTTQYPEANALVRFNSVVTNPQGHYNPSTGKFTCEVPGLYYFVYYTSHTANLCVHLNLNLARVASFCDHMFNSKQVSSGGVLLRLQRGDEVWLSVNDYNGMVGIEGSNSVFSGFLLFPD

Measured: binding

B1: Recombinant human His-tagged neuronal pentraxin 2 (protein, UniProt P47972 16-431)
chain: GAQDSPAPGSRFVCTALPPEAVHAGCPLPAMPMQGGAQSPEEELRAAVLQLRETVVQQKETLGAQREAIRELTGKLARCEGLAGGKARGAGATGKDTMGDLPRDPGHVVEQLSRSLQTLKDRLESLEHQLRANVSNAGLPGDFREVLQQRLGELERQLLRKVAELEDEKSLLHNETSAHRQKTESTLNALLQRVTELERGNSAFKSPDAFKVSLPLRTNYLYGKIKKTLPELYAFTICLWLRSSASPGIGTPFSYAVPGQANEIVLIEWGNNPIELLINDKVAQLPLFVSDGKWHHICVTWTTRDGMWEAFQDGEKLGTGENLAPWHPIKPGGVLILGQEQDTVGGRFDATQAFVGELSQFNIWDRVLRAQEIVNIANCSTNMPGNIIPWVDNNVDVFGGASKWPVETCEERLLDL
binds: all assays above

B2: Recombinant human His-tagged neuronal pentraxin 1 (protein, UniProt Q15818 23-432)
chain: QDFGPTRFICTSVPVDADMCAASVAAGGAEELRSSVLQLRETVLQQKETILSQKETIRELTAKLGRCESQSTLDPGAGEARAGGGRKQPGSGKNTMGDLSRTPAAETLSQLGQTLQSLKTRLENLEQYSRLNSSSQTNSLKDLLQSKIDELERQVLSRVNTLEEGKGGPRNDTEERVKIETALTSLHQRISELEKGQKDNRPGDKFQLTFPLRTNYMYAKVKKSLPEMYAFTVCMWLKSSATPGVGTPFSYAVPGQANELVLIEWGNNPMEILINDKVAKLPFVINDGKWHHICVTWTTRDGVWEAYQDGTQGGSGENLAPYHPIKPQGVLVLGQEQDTLGGGFDATQAFVGELAHFNIWDRKLTPGEVYNLATCSTKALSGNVIAWAESHIEIYGGATKWTFEACRQIN
binds: all assays above

— PMC7897678
